Measurements: PMC5316414
Results are given in words; binding and its absence hold for the method and conditions named. In cells and extracts the contact can be indirect. Some entries that bind do so weakly or less than the wild type. For some assays here: Tags and fused reporters may be left off the sequences shown.

Protein sequences, listed by entry. Tags and fused reporters are not part of them. Lines headed by an entry give the natural chain unless they say otherwise; changes in a name come on top.
UniProt P53538: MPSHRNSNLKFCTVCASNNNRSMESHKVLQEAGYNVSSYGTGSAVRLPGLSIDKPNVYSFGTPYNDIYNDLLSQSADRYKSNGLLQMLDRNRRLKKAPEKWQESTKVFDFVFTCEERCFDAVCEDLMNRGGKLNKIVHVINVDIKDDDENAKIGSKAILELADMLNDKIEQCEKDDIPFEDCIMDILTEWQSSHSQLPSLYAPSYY
UniProt P39081: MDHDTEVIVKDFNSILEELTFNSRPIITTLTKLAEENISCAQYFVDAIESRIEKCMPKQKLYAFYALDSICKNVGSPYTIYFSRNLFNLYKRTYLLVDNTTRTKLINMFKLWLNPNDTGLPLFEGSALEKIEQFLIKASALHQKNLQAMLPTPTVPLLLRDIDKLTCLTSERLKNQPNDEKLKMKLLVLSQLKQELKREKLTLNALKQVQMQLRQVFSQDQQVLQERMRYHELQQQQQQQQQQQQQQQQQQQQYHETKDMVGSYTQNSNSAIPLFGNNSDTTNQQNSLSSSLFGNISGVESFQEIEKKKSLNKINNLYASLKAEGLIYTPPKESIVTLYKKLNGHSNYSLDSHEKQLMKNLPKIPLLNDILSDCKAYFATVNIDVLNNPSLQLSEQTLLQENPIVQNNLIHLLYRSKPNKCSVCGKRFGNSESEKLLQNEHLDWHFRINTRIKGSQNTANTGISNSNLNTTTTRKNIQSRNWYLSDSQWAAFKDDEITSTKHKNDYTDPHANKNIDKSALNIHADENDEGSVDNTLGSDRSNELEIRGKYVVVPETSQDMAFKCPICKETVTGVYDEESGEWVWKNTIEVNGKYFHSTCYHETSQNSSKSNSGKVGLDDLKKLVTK
UniProt P04050: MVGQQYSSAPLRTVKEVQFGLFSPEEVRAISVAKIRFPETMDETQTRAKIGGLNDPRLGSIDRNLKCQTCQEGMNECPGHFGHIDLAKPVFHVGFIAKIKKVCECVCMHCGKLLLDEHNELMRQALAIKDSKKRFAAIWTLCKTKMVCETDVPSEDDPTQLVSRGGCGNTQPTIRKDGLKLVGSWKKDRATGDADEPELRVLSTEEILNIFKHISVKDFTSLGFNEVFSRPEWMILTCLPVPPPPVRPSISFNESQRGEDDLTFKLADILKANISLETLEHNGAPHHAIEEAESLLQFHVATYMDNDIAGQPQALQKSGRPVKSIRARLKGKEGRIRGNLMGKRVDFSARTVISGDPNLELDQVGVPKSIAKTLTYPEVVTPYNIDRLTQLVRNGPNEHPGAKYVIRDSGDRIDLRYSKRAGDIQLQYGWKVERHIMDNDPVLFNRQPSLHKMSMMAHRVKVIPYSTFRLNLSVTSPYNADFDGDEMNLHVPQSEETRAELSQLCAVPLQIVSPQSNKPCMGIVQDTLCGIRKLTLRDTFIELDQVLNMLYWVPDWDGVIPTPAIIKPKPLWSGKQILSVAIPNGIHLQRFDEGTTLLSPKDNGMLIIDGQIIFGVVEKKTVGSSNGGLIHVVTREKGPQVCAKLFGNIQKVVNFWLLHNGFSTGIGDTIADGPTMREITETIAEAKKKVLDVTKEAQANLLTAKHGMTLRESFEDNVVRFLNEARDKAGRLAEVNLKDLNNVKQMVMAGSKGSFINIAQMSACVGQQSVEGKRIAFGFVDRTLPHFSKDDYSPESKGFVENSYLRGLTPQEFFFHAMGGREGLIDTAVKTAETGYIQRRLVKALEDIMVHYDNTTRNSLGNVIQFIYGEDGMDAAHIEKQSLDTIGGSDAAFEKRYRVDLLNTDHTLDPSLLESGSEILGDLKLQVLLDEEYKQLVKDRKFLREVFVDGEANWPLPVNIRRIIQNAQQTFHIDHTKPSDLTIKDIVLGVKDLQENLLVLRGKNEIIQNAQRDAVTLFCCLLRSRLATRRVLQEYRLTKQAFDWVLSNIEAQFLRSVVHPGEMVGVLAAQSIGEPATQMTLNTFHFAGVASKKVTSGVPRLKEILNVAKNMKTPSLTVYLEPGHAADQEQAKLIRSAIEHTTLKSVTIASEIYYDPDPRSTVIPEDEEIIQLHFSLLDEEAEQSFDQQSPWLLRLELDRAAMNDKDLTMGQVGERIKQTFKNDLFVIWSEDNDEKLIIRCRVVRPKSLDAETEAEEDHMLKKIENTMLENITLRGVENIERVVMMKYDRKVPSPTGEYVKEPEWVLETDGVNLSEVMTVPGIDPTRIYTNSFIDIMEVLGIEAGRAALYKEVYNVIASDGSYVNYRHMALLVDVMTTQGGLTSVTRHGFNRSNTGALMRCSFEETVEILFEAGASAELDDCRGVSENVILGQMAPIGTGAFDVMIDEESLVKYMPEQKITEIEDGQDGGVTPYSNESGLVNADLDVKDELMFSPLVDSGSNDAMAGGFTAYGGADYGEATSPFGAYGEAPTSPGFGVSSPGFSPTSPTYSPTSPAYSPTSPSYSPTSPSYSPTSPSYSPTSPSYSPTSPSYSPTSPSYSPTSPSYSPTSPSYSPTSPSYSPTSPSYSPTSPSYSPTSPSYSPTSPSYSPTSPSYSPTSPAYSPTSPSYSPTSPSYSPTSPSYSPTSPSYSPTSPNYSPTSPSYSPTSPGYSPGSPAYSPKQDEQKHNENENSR

What was measured:
Experiment in all cases: co-IP; single IP (TEF-seq): anti-FLAG M2 agarose beads, 4°C, 2.5 h, from cryogenically lysed, DNase I-treated yeast extract in 20 mM HEPES pH 7.4, 110 mM KOAc, 0.5% Triton X-100, 0.1% Tween 20, 10 mM MnCl2; eluted with 3xFLAG peptide; co-precipitated Pol2 read by sequencing its nascent RNA, no-tag control subtracted; samples also analysed by western blot; cells in glucose, for Paf1 also 5, 15 or 60 min in galactose
[1] = target: FLAG-tagged Ssu72 (S. cerevisiae) (UniProt P53538)
[2] = target: FLAG-tagged Pcf11 (S. cerevisiae) (UniProt P39081)
[3] = target: T1, FLAG-tagged Paf1 (RNA polymerase II-associated factor 1) (S. cerevisiae) (UniProt P38351)
T1 sequence: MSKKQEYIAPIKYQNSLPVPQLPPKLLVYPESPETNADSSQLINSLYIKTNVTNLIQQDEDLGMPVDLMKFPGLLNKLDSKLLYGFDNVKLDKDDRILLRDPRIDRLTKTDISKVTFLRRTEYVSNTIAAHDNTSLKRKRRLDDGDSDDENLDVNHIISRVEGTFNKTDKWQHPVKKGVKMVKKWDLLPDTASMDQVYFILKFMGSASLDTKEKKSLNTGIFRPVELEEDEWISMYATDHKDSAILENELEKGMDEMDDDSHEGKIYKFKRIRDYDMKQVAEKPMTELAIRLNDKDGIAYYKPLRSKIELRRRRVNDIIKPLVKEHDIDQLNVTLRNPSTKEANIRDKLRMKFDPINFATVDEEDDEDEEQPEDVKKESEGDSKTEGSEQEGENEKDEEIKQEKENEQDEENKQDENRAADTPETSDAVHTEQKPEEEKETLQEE

[4] = target: T2, FLAG-tagged Set2 (S. cerevisiae) (UniProt P46995)
T2 sequence: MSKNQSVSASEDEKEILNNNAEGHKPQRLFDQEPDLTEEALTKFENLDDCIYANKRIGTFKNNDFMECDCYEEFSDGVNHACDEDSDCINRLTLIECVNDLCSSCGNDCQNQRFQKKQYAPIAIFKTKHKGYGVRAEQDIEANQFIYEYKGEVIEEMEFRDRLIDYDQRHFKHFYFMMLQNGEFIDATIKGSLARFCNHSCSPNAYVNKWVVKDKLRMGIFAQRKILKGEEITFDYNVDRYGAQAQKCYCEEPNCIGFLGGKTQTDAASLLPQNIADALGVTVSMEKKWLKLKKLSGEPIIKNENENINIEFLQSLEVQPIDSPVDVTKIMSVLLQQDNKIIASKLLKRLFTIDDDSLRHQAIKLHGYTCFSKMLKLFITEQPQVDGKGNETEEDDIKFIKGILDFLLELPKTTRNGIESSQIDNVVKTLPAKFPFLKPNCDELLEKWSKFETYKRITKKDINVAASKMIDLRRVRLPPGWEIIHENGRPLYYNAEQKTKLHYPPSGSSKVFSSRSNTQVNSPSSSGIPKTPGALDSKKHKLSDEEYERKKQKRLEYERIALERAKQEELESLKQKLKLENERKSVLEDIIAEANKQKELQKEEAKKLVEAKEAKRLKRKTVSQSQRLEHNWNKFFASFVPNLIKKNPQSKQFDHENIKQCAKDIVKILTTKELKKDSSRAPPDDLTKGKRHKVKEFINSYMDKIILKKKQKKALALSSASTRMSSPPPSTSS

[5] = target: T3, FLAG-tagged Cet1 (S. cerevisiae) (UniProt O13297)
T3 sequence: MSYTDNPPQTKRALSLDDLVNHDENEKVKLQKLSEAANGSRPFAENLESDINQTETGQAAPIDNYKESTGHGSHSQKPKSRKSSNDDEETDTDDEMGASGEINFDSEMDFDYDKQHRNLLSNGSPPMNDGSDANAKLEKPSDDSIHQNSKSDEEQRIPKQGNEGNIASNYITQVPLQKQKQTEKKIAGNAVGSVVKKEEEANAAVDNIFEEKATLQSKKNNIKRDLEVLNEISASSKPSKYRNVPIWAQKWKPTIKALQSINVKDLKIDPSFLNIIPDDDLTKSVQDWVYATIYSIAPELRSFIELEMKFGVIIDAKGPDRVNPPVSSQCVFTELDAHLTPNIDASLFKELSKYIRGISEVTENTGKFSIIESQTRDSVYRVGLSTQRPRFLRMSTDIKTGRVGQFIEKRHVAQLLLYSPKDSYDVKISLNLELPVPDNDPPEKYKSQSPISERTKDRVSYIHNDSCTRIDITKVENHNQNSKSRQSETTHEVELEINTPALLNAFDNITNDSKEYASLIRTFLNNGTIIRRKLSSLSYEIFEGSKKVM

- binding [1]: binds
- binding [2]: binds
- binding [3]: binds
- binding [4]: binds
- binding [5]: binds
Substance: RNA polymerase II (Pol2), endogenous, untagged (from UniProt P04050 1-1733; P08518 1-1224; P16370 1-318; P20433 1-221; P20434 1-215; P20435 1-155; P34087 1-171; P20436 1-146; P27999 1-122; P22139 1-70; P38902 1-120; P40422 1-70) (complex)
